The values that follow come from paper PMC4598761.

Chains of the proteins cited; added tags and fusions are not shown.
UniProt Q9Y3R4: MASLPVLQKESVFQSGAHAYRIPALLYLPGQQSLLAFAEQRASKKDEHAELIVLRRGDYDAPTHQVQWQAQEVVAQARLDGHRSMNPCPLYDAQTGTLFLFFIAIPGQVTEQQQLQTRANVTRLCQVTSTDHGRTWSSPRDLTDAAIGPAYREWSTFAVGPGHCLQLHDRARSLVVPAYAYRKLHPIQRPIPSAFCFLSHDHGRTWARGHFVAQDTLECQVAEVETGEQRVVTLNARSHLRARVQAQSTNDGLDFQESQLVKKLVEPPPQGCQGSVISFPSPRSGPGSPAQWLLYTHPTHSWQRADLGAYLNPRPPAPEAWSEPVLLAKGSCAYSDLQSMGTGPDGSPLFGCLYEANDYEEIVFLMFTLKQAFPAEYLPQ

The target in this experiment is GST-NEU2 (recombinant cytosolic sialidase NEU2) (human) (UniProt Q9Y3R4). Description: pull-down; purified recombinant proteins mixed overnight at 4 °C (1.5 mg/mL each), precipitated with 20 μL Glutathione-Sepharose 4B for 1 h at 4 °C (GST or GST-tagged protein held), washed three times with PBS, western blotting; both purified. In general terms: Immunoblotting shows a protein as a band on a membrane.

These are yes or no findings as the source states them, for the method shown. Sequences can lack the tags named with a protein.

B1: (His)6-tagged yeast PNGase (enzyme, UniProt Q02890 1-363)
chain: MGEVYEKNNIDFDSIAKMLLIKYKDFILSKFKKAAPVENIRFQNLVHTNQFAQGVLGQSQHLCTVYDNPSWHSIVLETLDLDLIYKNVDKEFAKDGHAEGENIYTDYLVKELLRYFKQDFFKWCNKPDCNHCGQNTSENMTPLGSQGPNGEESKFNCGTVEIYKCNRCGNITRFPRYNDPIKLLETRKGRCGEWCNLFTLILKSFGLDVRYVWNREDHVWCEYFSNFLNRWVHVDSCEQSFDQPYIYSINWNKKMSYCIAFGKDGVVDVSKRYILQNELPRDQIKEEDLKFLCQFITKRLRYSLNDDEIYQLACRDEQEQIELIRGKTQETKSESVSAASKSSNRGRESGSADWKAQRGEDGK
B1: the binding result was “no binding”.
